Experimental data reported in PubChem BioAssay AID540275 (National Center for Advancing Translational Sciences (NCATS), 2011).
About 620 (0.19%) of roughly 320,000 compounds were called active. Inconclusive means that the source gave no clear call. Such entries were picked first, then a sample of the others. Rule as the data show it: active = activation above about 80%; inconclusive = between about 30% and that limit; inactive = weaker than that.

Amino acid sequences for entries named in this document (tags omitted).
UniProt Q8NER1, whole entry, looked up: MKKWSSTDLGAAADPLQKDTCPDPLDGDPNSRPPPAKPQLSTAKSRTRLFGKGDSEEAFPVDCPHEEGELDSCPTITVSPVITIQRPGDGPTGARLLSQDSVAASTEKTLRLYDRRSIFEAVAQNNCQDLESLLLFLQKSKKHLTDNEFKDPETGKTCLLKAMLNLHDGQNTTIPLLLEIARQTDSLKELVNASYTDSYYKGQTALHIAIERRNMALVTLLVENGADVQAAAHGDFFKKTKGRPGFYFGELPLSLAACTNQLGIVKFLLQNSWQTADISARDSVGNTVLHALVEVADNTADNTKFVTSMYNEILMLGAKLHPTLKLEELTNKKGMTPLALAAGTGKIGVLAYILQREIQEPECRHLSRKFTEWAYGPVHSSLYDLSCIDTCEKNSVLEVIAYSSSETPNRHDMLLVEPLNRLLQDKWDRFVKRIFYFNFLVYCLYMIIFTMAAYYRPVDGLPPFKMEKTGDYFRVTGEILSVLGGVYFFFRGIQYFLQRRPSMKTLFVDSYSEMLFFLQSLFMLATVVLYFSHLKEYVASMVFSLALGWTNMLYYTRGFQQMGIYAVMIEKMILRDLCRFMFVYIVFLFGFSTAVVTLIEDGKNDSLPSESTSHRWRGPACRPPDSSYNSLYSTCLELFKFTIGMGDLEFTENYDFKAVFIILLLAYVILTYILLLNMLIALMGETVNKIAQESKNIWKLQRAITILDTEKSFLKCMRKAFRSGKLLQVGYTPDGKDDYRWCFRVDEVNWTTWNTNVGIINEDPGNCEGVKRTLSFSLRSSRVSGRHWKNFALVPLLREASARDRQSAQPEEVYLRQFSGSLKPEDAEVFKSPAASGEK

Each compound was assayed against Transient receptor potential cation channel subfamily V member 1 (Homo sapiens) (UniProt Q8NER1) (assay: HTS Assay for Compounds that Act as Agonists of the Vanilloid Receptor 1). Details: TRPV1-expressing cells, Fluo-8 calcium influx, agonist mode; at 8.33 µM, hits give high values.
Outline: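 Fluo-8 calcium influx in TRPV1-expressing cells, kinetic read (ex 480/em 520 nm). Compound added and read 3 min for agonist activity, followed by capsaicin at EC20 final and 2 min further read for enhancement.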
Also: 0% is about no effect.

| SMILES | activation |
| --- | --- |
| Cc1ccc(-n2ncc(C(=O)Nc3ccc(Cl)cc3)c2C2CCNCC2)cc1C | inconclusive: 41.8% |
| O=C(Nc1cccc(F)c1)c1ccc(S(=O)(=O)N2CCCC2)cc1 | inconclusive: 62.5% |
| Cc1ccc(NC(=O)c2ccc(CN3CCc4ccccc4C3)cc2)cc1 | inconclusive: 50.2% |
| O=C(NCc1cccnc1)c1cc(Cl)ccc1[N+](=O)[O-] | inactive: 7.77% |
| CN(CCO)C(=O)C1CCN(c2ncc(C(F)(F)F)cc2Cl)CC1 | inconclusive: 56.2% |
| COc1ccc(NC(=O)CN(C)C(=O)c2ccc(N3CCCCC3)c([N+](=O)[O-])c2)cc1 | inconclusive: 30.7% |
| CC1(C)CC2CC(C)(CN2c2ncnc3ccc(Br)cc23)C1 (stereo unspecified) | inconclusive: 39.8% |
| Cc1nc(C)n(CC(O)COc2ccc3cc(Br)ccc3c2)n1 (stereo unspecified) | inactive: -0.944% |
| O=C(NC12CC3CC(CC(C3)C1)C2)N1CCN(c2ccccc2)CC1 | inconclusive: 64.3% |
| Cc1ccc(C)c(-c2cc(C(=O)Nc3nccs3)c3ccccc3n2)c1 | inactive: 15.3% |
| C/C=C(/C)C(=O)O[C@@H]1c2c(ccc3ccc(=O)oc23)O[C@@H]1C(C)(C)OC(=O)/C(C)=C\C | inconclusive: 47.7% |
| Cc1cc(C(=O)N/N=C/c2cc(Br)ccc2OC(=O)c2ccc(Br)cc2)n[nH]1 | inactive: -6.85% |
| Cc1ccc(C(=O)N2CCC(C(=O)c3c(C)cc(C)cc3C)CC2)cc1 | inconclusive: 33.5% |
| CC(NC(=O)NC12CC3CC(CC(C3)C1)C2)c1ccc2c(c1)OCO2 (stereo unspecified) | inconclusive: 30.8% |
| COc1ccc(C2CC(O)(c3ccccc3)Oc3c(C)ccc(C)c32)cc1 (stereo unspecified) | inactive: 10% |
| CC(C)COc1ccc(-c2nnc(-c3ccco3)o2)cc1 | inconclusive: 63.5% |
| COc1cc2c(cc1OC)CN(CCC(=O)c1ccc(Br)cc1)CC2 | inconclusive: 60.5% |
| COC(=O)c1ccc(-c2cc(CC3(C(=O)OC)CCN(C(=O)OC(C)(C)C)CC3)on2)cc1 | inconclusive: 34.6% |
| CC(C)(C)c1cc(NC(=O)c2cccc(S(=O)(=O)N3CCOCC3)c2)no1 | active: 80.3% |

Look-ups from the results shown:
O=C(Nc1cccc(F)c1)c1ccc(S(=O)(=O)N2CCCC2)cc1 – activation: inconclusive: 62.5%
Cc1ccc(-n2ncc(C(=O)Nc3ccc(Cl)cc3)c2C2CCNCC2)cc1C – activation: inconclusive: 41.8%
Cc1ccc(C)c(-c2cc(C(=O)Nc3nccs3)c3ccccc3n2)c1 – activation: inactive: 15.3%
Cc1ccc(NC(=O)c2ccc(CN3CCc4ccccc4C3)cc2)cc1 – activation: inconclusive: 50.2%

Following part:

| SMILES | activation |
| --- | --- |
| Cc1ccc(NC(=O)C2CCN(S(=O)(=O)c3ccc4c(c3)CCCC(=O)N4)CC2)c(Br)c1 | inconclusive: 41.5% |
| OCCN1CCN(c2nc(N3CCCCC3)nc(N3CCCCC3)n2)CC1 | inconclusive: 34.1% |
| CCC1(C)NC(=O)N(CC(=O)NCC(=O)Nc2c(C)cc(C)cc2C)C1=O (stereo unspecified) | inactive: -3.2% |
| CC1CCN(c2ccc(-c3cccs3)nn2)CC1 | inconclusive: 37.2% |
| CC(CNS(=O)(=O)c1ccc2c(c1)NC(=O)CCS2)c1ccccc1 (stereo unspecified) | inconclusive: 46.4% |
| CCC/C(C)=N/NC(=O)c1ccccc1O | inconclusive: 49.6% |
| Cc1cccc(C)c1OCC(=O)Nc1ccc2c(c1)OCCO2 | inconclusive: 47.7% |
| Cc1ccc(S(=O)(=O)/N=C2/NC(=O)/C(=C\c3cc(Br)cc(Br)c3O)S2)cc1 | inconclusive: 32.3% |
| O=C(NCc1csc2ccc(Cl)cc12)Nc1ccccc1 | inconclusive: 53.8% |
| O=C(NC(NC(=S)N1CCOCC1)C(Cl)(Cl)Cl)c1ccc(Cl)cc1 (stereo unspecified) | active: 83% |
| COc1cccc(/C=N/NC(=O)c2ccc3nc[nH]c3c2)c1O | inactive: -6.56% |
| Cc1ccc2nc(SC(C)C(=O)NCc3ccc4c(c3)OCO4)[nH]c2c1 (stereo unspecified) | inconclusive: 36.5% |
| COc1cccc2cc(C(C)N(CCCN3CCOCC3)C(=O)Nc3ccccc3)oc12 (stereo unspecified) | inconclusive: 48.8% |
| COc1ccc(N2CCN(S(=O)(=O)c3ccc(OC)c(C(=O)N4CCOCC4)c3)CC2)cc1 | inactive: -0.415% |
| CCN1C(=O)c2cccc3c(NC(=O)c4ccccc4)ccc1c23 | inconclusive: 45.6% |
| Clc1ccc(-n2ncc3c(NCc4ccco4)ncnc32)cc1 | inactive: -4.64% |
| Cc1ccccc1N=C1NC(=O)CC(c2ccccc2)S1 (stereo unspecified) | inactive: 0.195% |
| CC1(C)Cc2nc3sc4c(=O)n(Cc5ccccc5)cnc4c3cc2CS1 | inconclusive: 39.4% |
| Cc1c(Br)c([N+](=O)[O-])nn1CC(=O)N1CCN(Cc2ccccc2)CC1 | inconclusive: 34.6% |

| SMILES | activation |
| --- | --- |
| CN1CCN(C(=O)CCN2C(=O)/C(=C/c3ccccc3Cl)SC2=S)CC1 | inactive: 14.7% |
| Cc1cccc(C)c1OCc1cc(C(=O)N2CCN(c3ccccn3)CC2)no1 | inconclusive: 35.3% |
| CC(C)(C)c1ccc(OCC(=O)NCc2ccco2)c(Br)c1 | inconclusive: 48.1% |
| CCN(CC)Cc1nc2c(c(=O)[nH]1)C1(CCCCC1)Cc1ccccc1-2 | inconclusive: 31.1% |
| CC(C)c1ccc(S(=O)(=O)c2cn(Cc3ccc(F)cc3)c3cc4c(cc3c2=O)OCO4)cc1 | inactive: -3.03% |
| Cc1cccc(OCCn2c(-c3ccco3)nc3ccccc32)c1 | inconclusive: 36.7% |
| O=C(CCC1CCCN(C(=O)c2ccc3cc[nH]c3c2)C1)NCc1ccc(F)c(F)c1 (stereo unspecified) | inactive: 0.945% |
| CCCN1C(=O)/C(=C/c2ccc(N3CCOCC3)cc2)NC1=S | inconclusive: 55.1% |
| c1ccc(-c2c[n+]3c(n2-c2ccccc2)CCC3)cc1 | inactive: 4.41% |
| COc1cccc(NC(=O)C2CC(=O)N(C)C(=Nc3cccc(F)c3)S2)c1 (stereo unspecified) | inconclusive: 37.7% |
| CNC(=O)c1cn(-c2ccc(Cl)cc2)c(=O)c2ccccc12 | inactive: -1.58% |
| COc1ccc(NC2CCCN(C(=O)CSc3ccccc3)C2)cc1 (stereo unspecified) | inconclusive: 65.1% |
| CC(C)CC1Nc2ncnc(N3CCN(c4ccccc4)CC3)c2N(Cc2ccccc2)C1=O (stereo unspecified) | inconclusive: 43% |
| CCCCNC(=O)CSc1nc2ccccc2n1S(=O)(=O)c1ccc(Cl)cc1 | inconclusive: 32.9% |
| O=C(Nc1cccnc1)c1ccc(S(=O)(=O)c2ccc(Cl)cc2)cc1 | inconclusive: 58.1% |
| Fc1ccccc1-c1csc(=Nc2cccnc2)n1CC1CCCO1 (stereo unspecified) | inactive: 13.1% |
| NC(=O)c1ccc(NC(=O)C#Cc2ccccc2)cc1 | inconclusive: 56.1% |
| CN(C)C(CNc1ncnc2sc3c(c12)CCCCC3)c1ccco1 (stereo unspecified) | inactive: 22.2% |
